Source: the supplement of paper PMC5949888
Most values lie at the floor of the assay. Slopes are relative: functional sequences can read slightly below zero.

Tested on: Saccharomyces cerevisiae PS128 hsf1 delta, HSF1(1-493) fusion
Test: growth estimate (transactivation domain function in HSF1 fusion, heat-shock survival) (a.u. (slope of normalised read count over time)); higher = stronger growth at 37°C, i.e. more transactivation activity
Details: library: random library
Method: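 Random 60-nt DNA library encoding peptides of up to 20 aa, fused to the C-terminus of yeast HSF1 residues 1-493 (C-terminal TAD deleted) and expressed from the native HSF1 promoter on a CEN plasmid in hsf1-deleted S. cerevisiae PS128. Cells were selected at 37°C on -trp 5-FOA plates for 0, 2, 4, 6 and 8 days and amplicons were sequenced. Growth estimate is the slope of a robust linear fit of total-sum-normalised read counts (normalised to the first time point) over time, using at least 2 replicates. Sequences are classed functional (TAD activity) above a threshold of -0.13, set from stop-codon control sequences.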

| Substance | growth estimate |
| --- | --- |
| LVPPVHYIVKAQVYSDLGRG | < -0.25 |
| RYIAISQNSFYQEDLCPALR | < -0.25 |
| PEPVLCCYDG | < -0.25 |
| CQGSIIVSYVYVFGLARGP | < -0.25 |
| SKRRPLHPSKCQVGRQETVG | < -0.25 |
| RAGRKQRLWPVQNH | < -0.25 |
| GLVEGFYVL | < -0.25 |
| VTGRKRIRYLGHPEWTPNIW | < -0.25 |
| IYRTYNHFSRWS | < -0.25 |
| ATP | < -0.25 |
| WYA | < -0.25 |
| MVGPSGLNTKFAGAS | < -0.25 |
| FGEWKRLEEARQLNPTNSGP | < -0.25 |
| LVFENPVT | < -0.25 |
| FLVVQTGGVTHTTDSHQ | < -0.25 |
| HMSCYTRVSSQSKGADTVAT | < -0.25 |
| IYGLRGCQVCKDIKGVPSAR | < -0.25 |
| DHASQCKRAMYQSFTPEPST | < -0.25 |
| VNGVGTMVSSACPGNVPTGQ | -0.25 |
| SDLK | < -0.25 |
| VQTVHRFK | < -0.25 |
| VMRECTGSHVTMQVCSDRAI | < -0.25 |
| EGKAMRLVILDID | < -0.25 |
| IVDSNEESKLRSSYRASACR | < -0.25 |
| ECYVTHKAPPQGGK | < -0.25 |

Reprinted from the entries so far for reference:

| Substance | growth estimate |
| --- | --- |
| WYA | < -0.25 |
| MVGPSGLNTKFAGAS | < -0.25 |
| FGEWKRLEEARQLNPTNSGP | < -0.25 |

Later entries:

| Substance | growth estimate |
| --- | --- |
| NVFRLGRQRRQLRLYKTQ | < -0.25 |
| LFETSGLGAESRGVDDAGAY | < -0.25 |
| GGGSTPFLIKVW | < -0.25 |
| GAHRSEFSHTGRTRE | < -0.25 |
| HTTAQWLDSLGLAGTTLFAR | < -0.25 |
| ALVGEGLDTSHCPRMVTSKG | < -0.25 |
| SRHE | < -0.25 |
| FTAGLGSTCPVEGPPKHSCG | -0.243 |
| AVN | < -0.25 |
| GNHDR | < -0.25 |
| NNSWQTVILNERSHRFVGIQ | < -0.25 |
| SKFNRASERGLYSRQSALHA | < -0.25 |
| GDERSSSRNP | < -0.25 |
| NSRLARCGSGSQ | < -0.25 |
| VRPDDNCTHASGNVRS | < -0.25 |
| NWGTVVTKEGLAHSQYHMCR | < -0.25 |
| TITKPVRLMYRTGSDVHI | < -0.25 |
| GEEEDNSEGEAVAAPTDTVE | < -0.25 |
| ASFR | < -0.25 |
| RRQVILVVPEKDNEDNESL | < -0.25 |
| ADF | < -0.25 |
| PTMYCHINSPQGTWLRRIYP | < -0.25 |
| IIPNA | < -0.25 |
| FRP | < -0.25 |
| GAPIHTSFLSSKGAG | < -0.25 |

Single entries from the entries so far:
IYGLRGCQVCKDIKGVPSAR | growth estimate: < -0.25
NSRLARCGSGSQ | growth estimate: < -0.25
MVGPSGLNTKFAGAS | growth estimate: < -0.25
ALVGEGLDTSHCPRMVTSKG | growth estimate: < -0.25
FGEWKRLEEARQLNPTNSGP | growth estimate: < -0.25
GLVEGFYVL | growth estimate: < -0.25

Further entries

| Substance | growth estimate |
| --- | --- |
| YGIAIIVRVYAGNFGSIHRP | < -0.25 |
| SRICLGLFG | 0.0189 |
| TTGVLG | < -0.25 |
| SPEFLPGGSGLRC | < -0.25 |
| VYSTAQYRDIWSTIMSEDPA | < -0.25 |
| TVPNINLPSVLSRTFGIRLG | < -0.25 |
| PKSRGPYNVCGVRTETQLTR | < -0.25 |
| RQIISNIPFRNLQLCN | < -0.25 |
| GTGAKSVGKPVYHWEPHASD | < -0.25 |
| ESRIY | < -0.25 |
| AVIGEDT | < -0.25 |
| SHSPVSLLCRRRPK | < -0.25 |
| GVPMVKGYVRTGPI | < -0.25 |
| LPCTRYETI | < -0.25 |
| FRGTKN | < -0.25 |
| LHLSEEALRLAVRV | < -0.25 |
| KNILSASFISTIGIHTEERH | < -0.25 |
| GYHVCHMCQTCHASCRVCRL | < -0.25 |
| ELGKDT | -0.237 |
| PLIQSKLILEKSM | -0.243 |
| SLIYK | -0.248 |
| KCGVDRQAFRRCFRISPPST | < -0.25 |
| CFISTLPWCGFYQGEPPGTG | -0.237 |
| ADSTCALLRALVVWRHERMY | < -0.25 |
| STNNETHVFWFRSSRPSVCR | < -0.25 |

3 entries picked at random from the list so far:

| Substance | growth estimate |
| --- | --- |
| GGGSTPFLIKVW | < -0.25 |
| IYRTYNHFSRWS | < -0.25 |
| RRQVILVVPEKDNEDNESL | < -0.25 |

(next part)

| Substance | growth estimate |
| --- | --- |
| QGGYRDSCLKCYLFGV | 0.0906 |
| LAILG | < -0.25 |
| ATSY | < -0.25 |
| LYELHAVPSLILCLARY | < -0.25 |
| FSGIMKSCH | < -0.25 |
| GQESSADVHAVDGAANSTHP | < -0.25 |
| AITPDVCVAPYTPSIPIGVQ | < -0.25 |
| FTKITTYDW | < -0.25 |
| RTLECGAFHEPIQGQTRKHL | < -0.25 |
| LNV | < -0.25 |
| TFVGAQR | < -0.25 |
| KLGECTGLAEVESACRFKTS | < -0.25 |
| RPDKRPEFVSGAQ | < -0.25 |
| SIAGGQGIAVVPPFMRETLL | < -0.25 |
| SMFVWDP | -0.164 |
| LRADVRRIRSGANANLGFAV | < -0.25 |
| SGRYDLPATPWR | < -0.253 |
| KSTRGWL | < -0.25 |
| YRDHVERGRRGAYTLYTQLT | < -0.25 |
| SREIGVHRC | < -0.25 |
| KAVPQKLFGELPDLANTSTV | < -0.25 |
| LATKKQCHVFR | < -0.25 |
| TKKK | < -0.25 |
| RCSGAKIKEDRRVLGDFVCV | < -0.25 |
| EGPVDGVGR | < -0.25 |

| Substance | growth estimate |
| --- | --- |
| RVQVIILGDPSGATRSDYLC | < -0.25 |
| SGMIWFLCIKVPGMPNVGVS | < -0.25 |
| ARGDYIGSGLLFSPDLPEYG | < -0.25 |
| NGSIDFLGSTDVRKRRQLGG | < -0.25 |
| TPLKRLARCCVRSWIQLFSP | < -0.25 |
| ICIALTATPRGISKRLLTPT | < -0.25 |
| YGKSSECRSFRMWGSSLQSV | < -0.25 |
| TVVHVHIWFGPLAVLLPFPA | < -0.25 |
| DRTPIA | < -0.25 |
| PNF | < -0.25 |
| PRGGRIRRILLVTIRFPDPP | < -0.25 |
| VGNDRCARMCLIGPGFHDTN | < -0.25 |
| LGAILRECNQF | < -0.25 |
| TAHFPSCLGWQRLERGTRIA | < -0.25 |
| SRAVTSLVNSFASIAAHVVL | < -0.25 |
| VLSHRRYAVESRNRFNVPHN | < -0.25 |
| GFSTGVPRAFTTRRSRSRGT | < -0.25 |
| QASNRTIWAVVVDAING | < -0.25 |
| EQG | < -0.25 |
| GFRGQRC | < -0.25 |
| PRGTFCYERLECSVSIDTSI | < -0.25 |
| TRPAYNSRANA | < -0.25 |
| SLKMI | < -0.25 |
| RPPNDTSTMP | < -0.25 |
| YCGSYENLLTRFVFSSAFFR | < -0.25 |

| Substance | growth estimate |
| --- | --- |
| CPSLPSSSLARDRSSHSRSR | < -0.25 |
| AVAITIGAAGRKRAPCCDRA | < -0.25 |
| TMVRR | < -0.25 |
| LKRLSC | < -0.25 |
| STSRNQKSNFYGDRV | < -0.25 |
| HRQLLSARRNFESAHPGTSS | < -0.25 |
| TIADKVGESAASTGSTADRH | < -0.25 |
| SRDPDSNRVATANGRPRVRS | < -0.25 |
| PKGWPLRPPSVALVCYSQN | < -0.25 |
| GTPSDKAIYTSSLDP | < -0.25 |
| ASRSHRSVLGIWQIPL | < -0.25 |
| DVRSETV | < -0.25 |
| GPPTDGEGQRRGPYSVPVCA | < -0.25 |
| VTRQPCGGWLGPVRRNKLCE | < -0.25 |
| VRVVTARELYTTQKNCRVRN | < -0.25 |
| RYPGLTVGMSG | < -0.25 |
| ALQCLARGAGVSMRFPSRAS | < -0.25 |
| CLWRNRNMGRPP | < -0.25 |
| SRLDRILLWL | < -0.25 |
| ERSSVRCGIVLATSQPTHMA | < -0.25 |
| NNTRGRTHH | < -0.25 |
| DDGPH | < -0.25 |
| RKMMITVMYASTASGCHSPV | < -0.25 |
| RFDGLWFRYRPRFPLTRRVK | -0.0337 |
| KMVHFVVVFG | < -0.25 |

| Substance | growth estimate |
| --- | --- |
| RLFEAQGLTESQCL | < -0.25 |
| GPPARSVHSEQRLARCHIGR | < -0.25 |
| LEF | < -0.25 |
| GPVV | < -0.25 |
| RREPDV | -0.246 |
| DIEPLLRDWFRVDPGR | -0.223 |
| MFPSDAVKSDSFIFPCIAAR | < -0.25 |
| ADSH | < -0.25 |
| WLMISIVCEA | < -0.25 |
| LDQKG | < -0.25 |
| ILSGGSDWVSRR | < -0.25 |
| VASSGIKAAALVTTQSGFLR | < -0.25 |
| NIRPVSSARA | < -0.25 |
| SSARFRP | < -0.25 |
| LGCFAGFIIGAKVLRGEEHI | < -0.25 |
| YMYGVNRVHSR | < -0.25 |
| VGATDLCSCGPLEAVEFA | < -0.25 |
| KASDSTHRGPPLSLGIKRRR | < -0.25 |
| VGVRLYPIVF | < -0.25 |
| FGSLKHAC | < -0.25 |
| RFISQGNGFKRCNRWIQDTR | < -0.25 |
| TGLVFWPC | -0.247 |
| LGT | < -0.25 |
| SPCECVDRCDDSVVAQYDP | < -0.25 |
| RWSVLVSVTCCEVKGTYPIY | < -0.25 |

| Substance | growth estimate |
| --- | --- |
| CIRA | < -0.25 |
| VCCVGAESGSFREYRVAARY | < -0.25 |
| RSHVVTQLHVGCFVPKAYAR | < -0.25 |
| FLDTSARIVSLSSLLSASLR | < -0.25 |
| LYVCLGG | < -0.25 |
| RYRQARFLSGNW | < -0.25 |
| RFMGESFI | < -0.25 |
| GMTFWIRPTAPRGIYKTFIE | < -0.25 |
| LASVQACCV | < -0.25 |
| TSSRSSLQGVVPVSRMVSTD | < -0.25 |
| PSFYL | < -0.25 |
| GKRIPGSFSEISSHRCSPDE | < -0.25 |
| RILHT | < -0.25 |
| NHTCS | < -0.25 |
| GTGMVMQAVNEGHQYTTPGR | < -0.25 |
| QGGHWG | < -0.25 |
| CQT | < -0.25 |
| LRMCAESRTATSSTGQLAIY | < -0.25 |
| IVAVTRSDVLNQGDPGTPIQ | < -0.25 |
